Experimental data taken from article PMC8864472.
No constants are given. Whether binding was seen depends on the method and setting. In cells and extracts the contact can be indirect. Some entries that bind do so weakly or less than the wild type.

By UniProt entry, the sequences of proteins in these tests, tags left out.
UniProt O14939: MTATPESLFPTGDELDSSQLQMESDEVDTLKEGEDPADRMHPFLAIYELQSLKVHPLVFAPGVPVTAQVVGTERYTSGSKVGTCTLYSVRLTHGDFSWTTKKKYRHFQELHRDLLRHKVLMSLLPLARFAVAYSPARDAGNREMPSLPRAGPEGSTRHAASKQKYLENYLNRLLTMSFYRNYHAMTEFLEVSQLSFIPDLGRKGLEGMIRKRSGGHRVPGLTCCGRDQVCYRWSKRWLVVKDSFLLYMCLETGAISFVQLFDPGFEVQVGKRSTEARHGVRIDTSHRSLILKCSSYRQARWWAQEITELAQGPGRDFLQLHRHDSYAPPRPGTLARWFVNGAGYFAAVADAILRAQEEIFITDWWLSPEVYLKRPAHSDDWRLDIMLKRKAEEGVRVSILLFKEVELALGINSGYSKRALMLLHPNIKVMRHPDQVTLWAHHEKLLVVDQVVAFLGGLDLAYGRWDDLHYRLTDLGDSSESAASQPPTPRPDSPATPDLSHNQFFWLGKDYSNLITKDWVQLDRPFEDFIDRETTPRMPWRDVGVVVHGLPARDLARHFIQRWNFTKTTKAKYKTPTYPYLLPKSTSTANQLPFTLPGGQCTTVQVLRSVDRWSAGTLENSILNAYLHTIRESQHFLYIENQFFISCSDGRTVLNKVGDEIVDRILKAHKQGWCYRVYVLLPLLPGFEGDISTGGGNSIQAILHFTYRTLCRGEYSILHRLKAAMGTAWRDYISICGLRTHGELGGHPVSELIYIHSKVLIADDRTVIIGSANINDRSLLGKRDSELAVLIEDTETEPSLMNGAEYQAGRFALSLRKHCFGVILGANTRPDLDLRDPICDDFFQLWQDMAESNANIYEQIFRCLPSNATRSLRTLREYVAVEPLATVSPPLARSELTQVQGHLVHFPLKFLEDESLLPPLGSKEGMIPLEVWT

Tests used:
Test in all cases: pull-down; HEK293T cells transfected with constructs of both tagged proteins; pull-down with S protein beads; Western blot
[1] = molecular target: PLD2 (human) (UniProt O14939)
[2] = molecular target: T1, PLD5 (human) (UniProt Q8N7P1)
T1 sequence: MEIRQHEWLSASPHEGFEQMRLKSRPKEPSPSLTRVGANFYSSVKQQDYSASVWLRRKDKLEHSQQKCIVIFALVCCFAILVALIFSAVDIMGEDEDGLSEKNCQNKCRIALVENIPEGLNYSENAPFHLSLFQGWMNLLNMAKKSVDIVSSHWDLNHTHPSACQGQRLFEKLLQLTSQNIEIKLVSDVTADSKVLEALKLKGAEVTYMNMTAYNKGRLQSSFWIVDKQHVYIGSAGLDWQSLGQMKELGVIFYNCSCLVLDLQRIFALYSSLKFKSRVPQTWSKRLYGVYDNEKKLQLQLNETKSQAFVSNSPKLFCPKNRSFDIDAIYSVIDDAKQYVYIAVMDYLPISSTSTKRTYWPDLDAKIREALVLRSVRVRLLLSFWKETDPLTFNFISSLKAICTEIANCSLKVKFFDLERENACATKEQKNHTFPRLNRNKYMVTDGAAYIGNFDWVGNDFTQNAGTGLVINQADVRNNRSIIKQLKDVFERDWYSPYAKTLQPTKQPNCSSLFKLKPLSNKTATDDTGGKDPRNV

[3] = molecular target: T2, phospholipase D1 (human) (UniProt Q13393)
T2 sequence: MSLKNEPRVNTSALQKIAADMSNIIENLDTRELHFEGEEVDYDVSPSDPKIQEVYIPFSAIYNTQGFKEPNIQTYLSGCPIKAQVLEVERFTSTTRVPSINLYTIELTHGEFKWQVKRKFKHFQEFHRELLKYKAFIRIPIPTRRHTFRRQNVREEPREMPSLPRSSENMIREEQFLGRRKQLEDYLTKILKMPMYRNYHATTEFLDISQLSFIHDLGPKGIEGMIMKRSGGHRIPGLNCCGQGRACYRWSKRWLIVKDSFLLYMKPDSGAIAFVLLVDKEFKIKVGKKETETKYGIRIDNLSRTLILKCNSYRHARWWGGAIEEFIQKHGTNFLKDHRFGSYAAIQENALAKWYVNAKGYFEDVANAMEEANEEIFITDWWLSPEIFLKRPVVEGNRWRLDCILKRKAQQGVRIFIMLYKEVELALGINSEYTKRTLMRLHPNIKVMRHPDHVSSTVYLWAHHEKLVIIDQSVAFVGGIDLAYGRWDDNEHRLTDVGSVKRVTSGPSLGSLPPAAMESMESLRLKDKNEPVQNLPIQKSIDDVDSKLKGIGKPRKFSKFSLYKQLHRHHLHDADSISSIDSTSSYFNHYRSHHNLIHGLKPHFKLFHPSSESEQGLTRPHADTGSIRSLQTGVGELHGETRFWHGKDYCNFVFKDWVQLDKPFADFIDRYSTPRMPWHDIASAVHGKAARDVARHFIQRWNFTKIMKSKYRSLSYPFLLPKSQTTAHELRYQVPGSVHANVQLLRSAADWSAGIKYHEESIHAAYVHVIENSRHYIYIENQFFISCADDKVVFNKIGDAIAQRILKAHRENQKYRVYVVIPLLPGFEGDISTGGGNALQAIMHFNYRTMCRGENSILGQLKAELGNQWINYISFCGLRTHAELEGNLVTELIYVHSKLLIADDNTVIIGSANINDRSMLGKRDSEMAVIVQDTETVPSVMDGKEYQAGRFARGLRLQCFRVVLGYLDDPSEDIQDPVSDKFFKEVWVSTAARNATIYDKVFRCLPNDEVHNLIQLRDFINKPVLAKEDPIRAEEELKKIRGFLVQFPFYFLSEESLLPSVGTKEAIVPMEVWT

Measured: binding

B1: ANKMY2 (protein, UniProt Q8IV38 1-441)
chain: MVHIKKGELTQEEKELLEVIGKGTVQEAGTLLSSKNVRVNCLDENGMTPLMHAAYKGKLDMCKLLLRHGADVNCHQHEHGYTALMFAALSGNKDITWVMLEAGAETDVVNSVGRTAAQMAAFVGQHDCVTIINNFFPRERLDYYTKPQGLDKEPKLPPKLAGPLHKIITTTNLHPVKIVMLVNENPLLTEEAALNKCYRVMDLICEKCMKQRDMNEVLAMKMHYISCIFQKCINFLKDGENKLDTLIKSLLKGRASDGFPVYQEKIIRESIRKFPYCEATLLQQLVRSIAPVEIGSDPTAFSVLTQAITGQVGFVDVEFCTTCGEKGASKRCSVCKMVIYCDQTCQKTHWFTHKKICKNLKDIYEKQQLEAAKEKRQEENHGKLDVNSNCVNEEQPEAEVGISQKDSNPEDSGEGKKESLESEAELEGLQDAPAGPQVSEE
binds: [1] | [2] | [3]
